# Experimental data published in PubChem BioAssay AID540276 (National Center for Advancing Translational Sciences (NCATS), 2011).
# Values joined by “and” are separate entries in the source; they are usually repeats but may differ in a detail not shown here. Identical values can stand only once. The campaign covered roughly 300,000 compounds. About 5,400 (1.8%) were called active. This list was built around the results that the source calls inconclusive (neither active nor inactive); the mix of calls is not that of the screen. Calls follow the shape of the full dose curve; tested in HEK293 cells. Potencies of inconclusive entries are doubtful fits and often do not repeat.
# Assay: qHTS for inhibitors of binding or entry into cells for Marburg Virus
# Details: Marburg virus pseudotyped entry inhibition, cell reporter; activity change, negative = inhibition: at 37.8 µM (top of the series) unless noted
# % is scaled to controls: 0 for no effect and ±100 for the full control effect; potency is read from the fitted curve at half-maximal effect.
SMILES,Potency,"activity change, negative = inhibition"
CCOc1cc(-c2ccc(OC(=O)c3ccccc3)c(OC)c2)cc(=O)c2c(C)oc(C)c12,"inconclusive: 3.16 µM [inhibitor, partial curve, poor fit]",
O=C(CN1C(=O)c2ccccc2C1=O)NCC1CCCO1 (stereo unspecified),inactive,
CCCC(=O)Nc1ccc(NC(=O)c2ccccc2OC)cn1,"inconclusive: 20 µM [inhibitor, partial curve, poor fit]",
Oc1ccccc1-c1cc(-c2ccc(Cl)cc2)n[nH]1,"inconclusive: 35.5 µM [inhibitor, single point]",
COc1ccc(CCN2CC(C(=O)OCC(=O)NC(C)c3cccc(Cl)c3)CC2=O)cc1OC (stereo unspecified),inactive,
O=C(Cc1ccc2ccccc2c1)Nc1ccccc1Br,inactive,
COc1ccc(CN(C2CCCC2)S(=O)(=O)c2ccc(-n3cnnn3)c(OC)c2)cc1OC,"inconclusive: 9.2 µM [inhibitor, partial curve]",
CCC(C)NC(=O)Cn1c(=O)n(Cc2ccc(C(=O)NCc3ccc(C)cc3)cc2)c(=O)c2ccccc21 (stereo unspecified),inactive,
CCN(CC(=O)NCc1cccs1)C(=O)/C=C/c1ccc(OC)cc1OC,inactive,
Cc1ccc(S(=O)(=O)N(Cc2ccccc2)c2ccccc2C(=O)NCc2cccnc2)cc1,"inconclusive: 7.31 µM [inhibitor, partial curve, poor fit]",
COc1ccc2occ(C(C)=O)c2c1,"inconclusive: 4.61 µM [inhibitor, single point]",
O=C(Nc1ccc(S(=O)(=O)N2CCc3ccccc32)cc1)c1ccco1,inactive,
CCOc1ccc2ncc3c(-c4cccc(OC)c4)nn(-c4ccccc4)c3c2c1,"inconclusive: 3.16 µM [inhibitor, single point]",
Cc1ccc(N(Cc2ccccc2)C(=O)Cc2ccc(S(=O)(=O)N3CCOCC3)s2)cc1,inactive,
O=C(Nc1ccccc1)NC1CCCCCCC1,"inconclusive: 6.31 µM [activator, single point]",
CCCCC(CC)CNC(=O)C(=O)c1ccccc1NC(C)=O (stereo unspecified),"inconclusive: 0.316 µM [activator, partial curve, poor fit]",
Cc1nn(Cc2ccccc2Cl)c(C)c1C(=O)Nc1nnc(C2CC2)s1,active: 0.891 µM,
CC1CCc2c(C(=O)NCc3ccco3)csc2C1 (stereo unspecified),inactive,
COc1ccc(C(c2nnnn2CC2CCCO2)N2CCN(c3cccc(C)c3C)CC2)cc1 (stereo unspecified),"inactive and inconclusive: 35.5 µM [inhibitor, single point]",
Fc1cnc(Cl)nc1NC1CCCCC1,inactive,
CCOc1ccc(C(=O)Nc2ccc3nc(N4CCN(CC)CC4)cc(C)c3c2)cc1,"inconclusive: 2.82 µM [inhibitor, full curve, poor fit]",
CC(=O)c1ccccc1OCCn1nnc(-c2ccc(C)cc2)n1,"inconclusive: 1.03 µM [activator, partial curve, poor fit]",
Cc1cc(Cl)ccc1OCC(=O)N1CC(C)CC(C)C1 (stereo unspecified),"inconclusive: 29.1 µM [inhibitor, single point]",
Cc1nn(C)c(C)c1CN(C)C(=O)c1cc2n(n1)C(C(F)(F)F)CC(c1cccs1)N2 (stereo unspecified),inactive,

SMILES,Potency,"activity change, negative = inhibition"
CCCCn1c(SCC(=O)NC2CCCC2)nc2ccccc2c1=O,inactive,
COc1ccc(S(=O)(=O)N2CCCCCC2)cc1C(=O)N(C)CC(=O)Nc1ccccc1Cl,inactive,
CC(C)(C)NCC(O)CON=C1c2ccccc2-c2ccccc21 (stereo unspecified),active: 10 µM,
CCOc1cc(NC(=S)Nc2ccccc2OC)c(OCC)cc1NC(=O)c1ccccc1C,"inconclusive: 29.1 µM [inhibitor, single point]",
O=S(=O)(c1ccccc1)c1nnn2c1nc(NCc1ccccc1)c1cc(Cl)ccc12,"inconclusive: 6.31 µM [inhibitor, single point]",
COC(=O)c1ccccc1NC(=O)CN(Cc1ccc(Cl)cc1)S(C)(=O)=O,"inconclusive: 20.6 µM [inhibitor, single point]",
O=C1CSC(=Nc2ccccc2Cl)N1,inactive,
Cc1ccc(/C=N/NC(=O)CNC(=O)COc2ccccc2)cc1,inactive,
CCOc1ccc2[nH]c(C(=O)N/N=C/c3ccccc3OC)cc2c1,"inconclusive: 1.12 µM [inhibitor, full curve, poor fit]",
O=C(Nc1cccc(F)c1)c1oc2ccccc2c1NC(=O)C12CC3CC(CC(C3)C1)C2,inactive,
CN(C)C(=S)SCC(=O)Nc1ccc(Cl)cc1Cl,inactive,
Cn1c(=O)c2c(ncn2CC(=O)Nc2cc(Cl)c(Cl)cc2Cl)n(C)c1=O,inactive,
Cn1c(=NCC(O)COc2ccccc2)sc2ccccc21 (stereo unspecified),"inconclusive: 35.5 µM [inhibitor, single point]",
CCOc1ccc(S(=O)(=O)N2CCCC(C(=O)NCc3ccncc3)C2)cc1Cl (stereo unspecified),"inconclusive: 7.08 µM [inhibitor, partial curve, poor fit]",
CC(=O)C1=C(c2ccccc2)N(C(C)=O)n2c(C)nnc2S1,"inconclusive: 29.1 µM [inhibitor, single point]",
CCc1nn2c(=O)c(S(=O)(=O)Nc3ccc(C(C)C)cc3)c(C)nc2s1,inactive,
CN(C)S(=O)(=O)N1CCCC(C(=O)c2ccc(C(F)(F)F)cc2)C1 (stereo unspecified),"inconclusive: 2.24 µM [inhibitor, partial curve, poor fit]",
CC(=O)NCCC(=O)Nc1cc(S(=O)(=O)N2CCOCC2)ccc1N1CCCC1,inactive,
CCc1ccc(-n2nc3ccc(NC(=O)COc4ccc(OC)cc4)cc3n2)cc1,"inconclusive: 2.24 µM [activator, partial curve, poor fit]",
O=C(COC(=O)c1ccccc1OC(F)F)Nc1ccc(N2CCCCC2)cc1,"inconclusive: 11.2 µM [activator, single point]",
O=C(Nc1cccc(S(=O)(=O)NCc2ccco2)c1)c1ccc(Cl)cc1,"inconclusive: 1.41 µM [inhibitor, partial curve, poor fit]",
Cc1sc(NC(=O)CCl)c(C(=O)c2ccccc2)c1C,inactive,
Cn1c(=O)[nH]c(=O)c2c1nc(N1CCOCC1)n2CC(O)COc1ccccc1 (stereo unspecified),"inconclusive: 2 µM [inhibitor, partial curve]",
CC(=O)c1ccc(Nc2ncnc3c2oc2ccccc23)cc1,"inconclusive: 0.562 µM [inhibitor, full curve]",

SMILES,Potency,"activity change, negative = inhibition"
COC(=O)c1cc(=O)n(Cc2ccc3c(c2)OCO3)c(=Nc2ccccc2)s1,inactive,
COc1ccc(-c2cn3cc(C)ccc3n2)cc1Br,active: 14.1 µM,
O=C(NCCc1ccccn1)C1CCN(S(=O)(=O)c2ccc(Cl)cc2)CC1,"inconclusive: 5.62 µM [inhibitor, single point]",
CCOC(=O)/C(=C/C=C1\Sc2cc(C)c(C)cc2N1CC)C(C)=O,"inconclusive: 10 µM [inhibitor, partial curve, poor fit]",
O=C(C1CCCN(S(=O)(=O)c2ccccc2[N+](=O)[O-])C1)N1CCCC1 (stereo unspecified),inactive,
O=C(COc1ncnc2sccc12)Nc1cccc(S(=O)(=O)N2CCOCC2)c1,,inconclusive: 5.2% [activator]
C=C(c1ccc(OCCO)cc1)c1ccc(OCCO)cc1,"inconclusive: 10 µM [activator, partial curve, poor fit]",
CC1(C)C2CC[C@]1(C)C(=O)N(CCCCN1CCN(c3ccccn3)CC1)C2=O,"inconclusive: 14.1 µM [inhibitor, partial curve, poor fit]",
O=C(Nc1ccc2[nH]ccc2c1)c1ccccc1,active: 6.31 µM,
Cc1ccc(-n2ncc3c(SCc4ccccc4)ncnc32)cc1,"inconclusive: 1.58 µM [activator, partial curve]",
CCCN(CCC)[C@@H]1CCc2cccc(O)c2C1,"inactive and inconclusive: 1.3 µM [inhibitor, partial curve, poor fit] and inconclusive: 10 µM [inhibitor, partial curve]",
COc1cccc(NC(=O)/C=C/c2ccccc2[N+](=O)[O-])c1,inactive,
CCOC(=O)c1sc2ncnc(N3CCN(CC)CC3)c2c1C,inactive,
O=C(Nc1ccc(Cl)cc1)C1CCCCN1S(=O)(=O)c1ccccc1 (stereo unspecified),"inconclusive: 10 µM [inhibitor, single point]",
Nc1c(N(CCC2=CCCCC2)C(=O)COc2ccc([N+](=O)[O-])cc2)c(=O)[nH]c(=O)n1Cc1ccccc1,"inconclusive: 12.6 µM [inhibitor, single point]",
Cc1ccc(OCC(=O)NNC(=O)CCC(=O)Nc2ccc(C)cc2C)cc1,inactive,
CC(=O)c1ccc(NC(=O)N2CCN(c3cccc(Cl)c3)CC2)cc1,"inconclusive: 29.1 µM [inhibitor, single point]",
CN1CCc2c(C#N)c(N3CCCCC3)nc(NCc3ccccc3)c2C1,"inconclusive: 29.1 µM [inhibitor, single point]",
Fc1cc(F)c2nc(Nc3nc4c(F)cccc4s3)sc2c1,"inconclusive: 35.5 µM [inhibitor, single point]",
CNc1ncnc2sc(-c3ccccc3)cc12,inactive,
COC(=O)c1ccc(OCCOc2ccc(C(=O)OC)cc2)cc1,inactive,
COc1ccc(/C=C2\SC(=O)N(CCNC(=O)Cc3coc4cc(C)ccc34)C2=O)cc1OC,"inconclusive: 23.1 µM [inhibitor, partial curve, poor fit]",
CCOc1ccc(-n2ccnc2SCC(=O)Nc2cc(C)on2)cc1,"inconclusive: 3.98 µM [inhibitor, partial curve, poor fit]",
